Measured values published in article doi:10.1101/681007 (bioRxiv, 2019).
No constants are given. Whether binding was seen depends on the method and setting. Some results given as binding are weak or reduced against the parent protein; the word gives no strength.

Protein sequences, listed by entry. Tags and fused reporters are not part of them. Lines headed by an entry give the natural chain unless they say otherwise; changes in a name come on top. Residues count along the entry.
UniProt P48730, residues 1-294: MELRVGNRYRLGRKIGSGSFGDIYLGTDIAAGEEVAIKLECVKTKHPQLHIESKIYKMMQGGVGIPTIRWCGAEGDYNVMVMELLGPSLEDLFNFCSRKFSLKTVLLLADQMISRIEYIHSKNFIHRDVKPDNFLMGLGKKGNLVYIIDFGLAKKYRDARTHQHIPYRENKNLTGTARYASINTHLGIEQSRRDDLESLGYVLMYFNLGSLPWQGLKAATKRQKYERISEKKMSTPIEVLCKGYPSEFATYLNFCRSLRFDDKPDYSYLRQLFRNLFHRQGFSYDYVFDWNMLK

Target: kinase domain of CK1δ (aa. 1-294) (UniProt P48730)
Test: crystal structure

| binding | Binder |
| --- | --- |
| binds | YTPSSASTVSVGSSET (phosphoserine at S582 (4th residue of the printed letters)) [PAD-1P (p63 phosphorylation activation domain peptide, phosphorylated on S582)] |
| binds | YTPSSASTVSVGSSET (phosphoserine at S582 and S585 (4th and 7th residues of the printed letters)) [PAD-2P (p63 phosphorylation activation domain peptide, phosphorylated on S582 and S585)] |
